Patent US5710244A (priority 1993, dated 1998)

Assay: general procedure: Fmoc solid-phase peptide synthesis; FMOC-Rink-amide MBHA resin; HBTU/HOBt; HOBt/DIC for N-terminal modification
Conditions: oxidative folding step, reversed phase HPLC, C4 analytical column, 270 nm, one disulfide bridge, sequence written open

| Substance | purity (crude or final not stated) [%] |
| --- | --- |
| Pycolinyl-modified Calcitonin (ZP-6 or Pic-SCT) | 90 |
| 2-Pyrazinoyl-modified calcitonin (ZP-7 or 2-Pyr-SCT) | >95 |
